Measurements reported in PubChem BioAssay AID1159578 (Peter MacCallum Cancer Centre, 2015)

Aim: 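siRNA pools altering how lymphatic endothelial cells close a scratch wound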 (primary screen)
System: human lymphatic endothelial cells
Knock-down reagent: siRNA pool against human genes, 40 nM
Duration: 48 h after transfection
Measurement: 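High-content imaging of dye-stained cells in a scratch assay measures filled wound area and nuclei per well; duplicate means given as ratio to mock and robust z-score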
Reading the numbers: migration robust z-score: higher = faster migration into the scratch; nuclei per well: higher = more cells in the well
Active means: 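Pools averaging fewer than 3300 nuclei are never called; remaining pools count as changed when migration robust z lies outside -2 to 2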
Calls: active = migration changed; inactive = no migration change, or too few cells
The whole screen tested about 18,000 reagents; below is a part drawn at random. Over the whole deposit, about 1,030 (5.7%) got an active call. 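Inactive calls also include pools with fewer than 3300 nuclei, whose migration was not assessed.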 Raw values vary from plate to plate and are shown uncorrected. Not all columns of the deposit are shown.

| gene symbol | migration robust z-score | nuclei per well, duplicate mean | activity call |
| --- | --- | --- | --- |
| SESN1 (GeneID 27244) | 0.4 | 6032 | inactive |
| CHSY1 (GeneID 22856) | -2.03 | 4393 | active |
| NAA30 (GeneID 122830) | -1.82 | 6042 | inactive |
| PRPF8 (GeneID 10594) | 0.38 | 4834 | inactive |
| ARSJ (GeneID 79642) | -0.24 | 4882 | inactive |
| CDK16 (GeneID 5127) | -0.62 | 3119 | inactive |
| FAM120C (GeneID 54954) | 0.5 | 6368 | inactive |
| LRFN3 (GeneID 79414) | -1.94 | 4954 | inactive |
| HAPLN4 (GeneID 404037) | 0.38 | 6000 | inactive |
| MARCHF3 (GeneID 115123) | 0.91 | 6290 | inactive |
| THSD1 (GeneID 55901) | 0.21 | 5816 | inactive |
| RIC8A (GeneID 60626) | 1.86 | 5830 | inactive |
| BRINP2 (GeneID 57795) | 0.55 | 5970 | inactive |
| H2AC8 (GeneID 3012) | -0.9 | 5256 | inactive |
| TSPAN7 (GeneID 7102) | -0.1 | 6120 | inactive |
| CELSR1 (GeneID 9620) | 0.16 | 5368 | inactive |
| FUT4 (GeneID 2526) | -0.05 | 4921 | inactive |
| INTS12 (GeneID 57117) | -1.01 | 4374 | inactive |
| BTG3 (GeneID 10950) | -0.69 | 5466 | inactive |
| NOA1 (GeneID 84273) | -2.21 | 5552 | active |
| PRSS53 (GeneID 339105) | 0.4 | 4334 | inactive |
| OR2M5 (GeneID 127059) | 0.58 | 5293 | inactive |
| GGT6 (GeneID 124975) | -0.91 | 5014 | inactive |
| NPAS1 (GeneID 4861) | 2.02 | 6027 | active |
| SNRPD2 (GeneID 6633) | -1.27 | 5816 | inactive |
| CAMKK1 (GeneID 84254) | -2.98 | 3883 | active |
| FNTA (GeneID 2339) | 0.78 | 4982 | inactive |
| ANK1 (GeneID 286) | -0.17 | 5746 | inactive |
| CDH22 (GeneID 64405) | -0.62 | 5048 | inactive |
| RTF1 (GeneID 23168) | -0.9 | 5291 | inactive |
| ASPHD2 (GeneID 57168) | 0.29 | 5751 | inactive |
| DPY19L3 (GeneID 147991) | 2.34 | 7906 | active |
| PSMF1 (GeneID 9491) | -3.22 | 4636 | active |
| TAS2R16 (GeneID 50833) | 0.19 | 6050 | inactive |
| NAXD (GeneID 55739) | -0.74 | 4863 | inactive |
| ITIH5 (GeneID 80760) | 0.18 | 6334 | inactive |
| OR8U8 (GeneID 504189) | 0.71 | 6068 | inactive |
| IPO11 (GeneID 51194) | -0.24 | 5074 | inactive |
| RIPK1 (GeneID 8737) | -1.55 | 4298 | inactive |
